Results on 16 molecules are retold here after article PMC5406014.

Sequences of proteins named here, by UniProt entry; tags and fusion partners are left off.
UniProt P54274: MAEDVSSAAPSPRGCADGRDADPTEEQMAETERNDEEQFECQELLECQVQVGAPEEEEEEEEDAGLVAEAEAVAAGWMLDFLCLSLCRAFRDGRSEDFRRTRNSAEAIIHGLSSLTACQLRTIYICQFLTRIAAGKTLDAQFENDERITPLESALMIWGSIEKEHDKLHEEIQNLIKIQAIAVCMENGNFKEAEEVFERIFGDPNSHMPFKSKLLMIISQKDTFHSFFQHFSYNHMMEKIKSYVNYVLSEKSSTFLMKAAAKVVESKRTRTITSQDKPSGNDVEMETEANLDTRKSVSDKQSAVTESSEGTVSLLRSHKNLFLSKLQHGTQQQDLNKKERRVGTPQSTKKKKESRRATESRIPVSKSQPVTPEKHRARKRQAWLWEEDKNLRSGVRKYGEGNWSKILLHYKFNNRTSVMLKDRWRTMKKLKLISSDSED
UniProt Q8IY92: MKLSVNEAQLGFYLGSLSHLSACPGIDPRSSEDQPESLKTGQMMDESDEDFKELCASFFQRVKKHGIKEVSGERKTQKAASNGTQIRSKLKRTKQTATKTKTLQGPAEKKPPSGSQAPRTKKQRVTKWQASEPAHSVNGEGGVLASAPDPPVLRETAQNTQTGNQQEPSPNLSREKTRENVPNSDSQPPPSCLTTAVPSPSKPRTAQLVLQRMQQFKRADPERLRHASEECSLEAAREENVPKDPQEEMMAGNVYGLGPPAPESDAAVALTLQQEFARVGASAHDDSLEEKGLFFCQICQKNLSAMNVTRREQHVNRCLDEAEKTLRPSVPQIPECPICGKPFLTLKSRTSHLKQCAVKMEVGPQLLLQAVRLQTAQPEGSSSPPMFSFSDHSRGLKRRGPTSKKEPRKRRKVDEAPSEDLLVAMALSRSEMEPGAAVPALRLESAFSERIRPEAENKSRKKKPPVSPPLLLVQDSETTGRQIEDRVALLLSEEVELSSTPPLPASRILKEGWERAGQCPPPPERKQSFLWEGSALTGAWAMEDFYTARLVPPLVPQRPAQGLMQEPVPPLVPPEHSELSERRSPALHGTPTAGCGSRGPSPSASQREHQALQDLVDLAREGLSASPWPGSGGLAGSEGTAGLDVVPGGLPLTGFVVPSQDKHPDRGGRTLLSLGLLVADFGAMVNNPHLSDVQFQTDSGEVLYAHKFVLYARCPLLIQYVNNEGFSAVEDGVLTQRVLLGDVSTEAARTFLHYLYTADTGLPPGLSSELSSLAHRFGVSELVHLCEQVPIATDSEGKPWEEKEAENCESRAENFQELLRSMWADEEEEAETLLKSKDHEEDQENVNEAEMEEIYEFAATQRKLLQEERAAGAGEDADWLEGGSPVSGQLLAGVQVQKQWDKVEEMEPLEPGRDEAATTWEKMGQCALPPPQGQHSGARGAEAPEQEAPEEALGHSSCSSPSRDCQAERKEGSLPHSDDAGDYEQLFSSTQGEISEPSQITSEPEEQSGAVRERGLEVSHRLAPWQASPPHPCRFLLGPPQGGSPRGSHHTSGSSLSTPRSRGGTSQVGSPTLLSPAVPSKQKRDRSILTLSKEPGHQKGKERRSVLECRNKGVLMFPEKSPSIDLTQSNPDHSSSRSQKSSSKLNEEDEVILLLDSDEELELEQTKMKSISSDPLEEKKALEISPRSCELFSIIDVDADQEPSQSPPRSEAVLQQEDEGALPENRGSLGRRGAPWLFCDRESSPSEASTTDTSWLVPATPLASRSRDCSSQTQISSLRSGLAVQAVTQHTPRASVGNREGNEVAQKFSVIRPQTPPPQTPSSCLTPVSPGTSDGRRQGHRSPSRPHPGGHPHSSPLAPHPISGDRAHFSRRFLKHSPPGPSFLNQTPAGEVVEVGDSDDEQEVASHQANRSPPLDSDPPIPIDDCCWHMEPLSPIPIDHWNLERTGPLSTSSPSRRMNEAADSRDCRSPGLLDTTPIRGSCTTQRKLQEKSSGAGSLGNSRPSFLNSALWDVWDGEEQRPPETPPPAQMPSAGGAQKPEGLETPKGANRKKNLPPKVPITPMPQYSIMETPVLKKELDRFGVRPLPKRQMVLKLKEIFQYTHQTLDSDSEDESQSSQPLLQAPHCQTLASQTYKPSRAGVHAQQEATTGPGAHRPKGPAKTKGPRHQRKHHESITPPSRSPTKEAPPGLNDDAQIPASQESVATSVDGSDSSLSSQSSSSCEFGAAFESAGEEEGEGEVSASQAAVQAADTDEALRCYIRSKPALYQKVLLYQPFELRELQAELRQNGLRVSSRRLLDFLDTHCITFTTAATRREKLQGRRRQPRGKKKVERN
UniProt P46100: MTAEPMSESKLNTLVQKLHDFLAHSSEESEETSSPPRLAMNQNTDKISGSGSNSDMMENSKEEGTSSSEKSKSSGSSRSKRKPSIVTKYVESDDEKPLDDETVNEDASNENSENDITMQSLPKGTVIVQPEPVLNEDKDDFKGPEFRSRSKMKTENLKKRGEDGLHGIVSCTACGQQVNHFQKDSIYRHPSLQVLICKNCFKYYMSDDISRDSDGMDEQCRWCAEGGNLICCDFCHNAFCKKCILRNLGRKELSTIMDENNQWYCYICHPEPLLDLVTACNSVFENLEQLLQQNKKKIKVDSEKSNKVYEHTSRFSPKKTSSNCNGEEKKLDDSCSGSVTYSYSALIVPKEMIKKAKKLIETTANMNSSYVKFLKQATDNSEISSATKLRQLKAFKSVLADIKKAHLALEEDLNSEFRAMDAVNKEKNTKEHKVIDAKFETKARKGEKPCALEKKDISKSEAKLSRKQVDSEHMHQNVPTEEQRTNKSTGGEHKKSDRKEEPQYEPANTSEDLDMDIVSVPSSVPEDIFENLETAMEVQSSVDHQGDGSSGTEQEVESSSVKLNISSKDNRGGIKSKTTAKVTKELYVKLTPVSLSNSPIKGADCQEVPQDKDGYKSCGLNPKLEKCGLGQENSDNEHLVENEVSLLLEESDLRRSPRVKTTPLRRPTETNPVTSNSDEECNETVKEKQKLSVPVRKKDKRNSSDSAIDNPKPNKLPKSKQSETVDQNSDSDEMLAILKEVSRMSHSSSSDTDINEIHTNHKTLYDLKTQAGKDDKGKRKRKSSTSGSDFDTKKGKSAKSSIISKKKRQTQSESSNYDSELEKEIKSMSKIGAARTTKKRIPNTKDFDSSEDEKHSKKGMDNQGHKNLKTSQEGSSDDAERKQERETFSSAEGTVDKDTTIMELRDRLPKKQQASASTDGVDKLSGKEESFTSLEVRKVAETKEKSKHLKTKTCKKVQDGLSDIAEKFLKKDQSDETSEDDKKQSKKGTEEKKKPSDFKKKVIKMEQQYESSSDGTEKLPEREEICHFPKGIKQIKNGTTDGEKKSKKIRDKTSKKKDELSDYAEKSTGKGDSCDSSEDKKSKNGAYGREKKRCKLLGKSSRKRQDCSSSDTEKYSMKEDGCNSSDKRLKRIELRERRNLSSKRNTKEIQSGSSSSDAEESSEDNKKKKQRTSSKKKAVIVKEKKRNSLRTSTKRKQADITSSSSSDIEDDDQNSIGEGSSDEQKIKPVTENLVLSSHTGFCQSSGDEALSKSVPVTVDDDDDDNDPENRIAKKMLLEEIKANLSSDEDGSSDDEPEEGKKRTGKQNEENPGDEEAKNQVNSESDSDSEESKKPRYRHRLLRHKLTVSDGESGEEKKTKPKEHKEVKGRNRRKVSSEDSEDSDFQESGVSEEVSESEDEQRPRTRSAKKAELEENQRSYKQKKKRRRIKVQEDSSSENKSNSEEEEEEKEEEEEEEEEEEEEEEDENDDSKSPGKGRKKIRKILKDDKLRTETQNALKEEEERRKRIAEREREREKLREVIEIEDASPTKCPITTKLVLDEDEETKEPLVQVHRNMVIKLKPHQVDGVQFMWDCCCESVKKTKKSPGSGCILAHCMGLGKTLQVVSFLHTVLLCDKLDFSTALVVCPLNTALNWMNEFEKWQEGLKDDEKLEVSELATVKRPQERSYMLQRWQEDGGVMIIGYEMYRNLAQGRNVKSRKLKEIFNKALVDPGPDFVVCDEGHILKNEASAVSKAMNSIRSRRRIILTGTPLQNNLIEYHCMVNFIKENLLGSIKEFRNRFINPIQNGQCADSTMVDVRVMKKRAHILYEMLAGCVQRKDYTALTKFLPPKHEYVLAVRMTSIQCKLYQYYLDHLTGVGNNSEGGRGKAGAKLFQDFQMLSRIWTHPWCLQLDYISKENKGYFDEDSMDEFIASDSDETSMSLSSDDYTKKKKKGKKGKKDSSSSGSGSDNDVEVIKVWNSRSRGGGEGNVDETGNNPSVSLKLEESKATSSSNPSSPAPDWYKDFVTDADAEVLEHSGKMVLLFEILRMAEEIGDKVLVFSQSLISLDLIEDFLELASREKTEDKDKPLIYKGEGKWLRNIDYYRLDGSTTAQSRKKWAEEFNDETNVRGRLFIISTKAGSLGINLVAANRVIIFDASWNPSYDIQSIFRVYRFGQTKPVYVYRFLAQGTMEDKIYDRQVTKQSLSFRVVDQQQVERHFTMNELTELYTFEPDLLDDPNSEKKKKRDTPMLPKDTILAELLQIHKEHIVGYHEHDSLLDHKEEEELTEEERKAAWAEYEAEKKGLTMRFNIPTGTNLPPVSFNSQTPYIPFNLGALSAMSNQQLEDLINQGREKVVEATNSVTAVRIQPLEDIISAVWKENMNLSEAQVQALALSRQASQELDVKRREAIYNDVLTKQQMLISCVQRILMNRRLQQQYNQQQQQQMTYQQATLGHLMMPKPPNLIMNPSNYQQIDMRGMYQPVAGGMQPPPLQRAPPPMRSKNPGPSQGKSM
UniProt Q96AP0: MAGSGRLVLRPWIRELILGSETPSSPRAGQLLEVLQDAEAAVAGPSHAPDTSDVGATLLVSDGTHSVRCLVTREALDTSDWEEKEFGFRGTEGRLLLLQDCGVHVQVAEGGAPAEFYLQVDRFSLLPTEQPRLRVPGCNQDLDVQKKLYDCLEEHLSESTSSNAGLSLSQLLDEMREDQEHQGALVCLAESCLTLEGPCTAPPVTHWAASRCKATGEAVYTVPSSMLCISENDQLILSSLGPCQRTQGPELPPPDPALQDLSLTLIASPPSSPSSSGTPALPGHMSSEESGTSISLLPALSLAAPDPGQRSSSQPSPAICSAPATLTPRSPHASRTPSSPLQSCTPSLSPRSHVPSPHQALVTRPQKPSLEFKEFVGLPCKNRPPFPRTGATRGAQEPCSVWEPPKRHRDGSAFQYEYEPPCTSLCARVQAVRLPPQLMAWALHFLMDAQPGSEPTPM
UniProt P09874: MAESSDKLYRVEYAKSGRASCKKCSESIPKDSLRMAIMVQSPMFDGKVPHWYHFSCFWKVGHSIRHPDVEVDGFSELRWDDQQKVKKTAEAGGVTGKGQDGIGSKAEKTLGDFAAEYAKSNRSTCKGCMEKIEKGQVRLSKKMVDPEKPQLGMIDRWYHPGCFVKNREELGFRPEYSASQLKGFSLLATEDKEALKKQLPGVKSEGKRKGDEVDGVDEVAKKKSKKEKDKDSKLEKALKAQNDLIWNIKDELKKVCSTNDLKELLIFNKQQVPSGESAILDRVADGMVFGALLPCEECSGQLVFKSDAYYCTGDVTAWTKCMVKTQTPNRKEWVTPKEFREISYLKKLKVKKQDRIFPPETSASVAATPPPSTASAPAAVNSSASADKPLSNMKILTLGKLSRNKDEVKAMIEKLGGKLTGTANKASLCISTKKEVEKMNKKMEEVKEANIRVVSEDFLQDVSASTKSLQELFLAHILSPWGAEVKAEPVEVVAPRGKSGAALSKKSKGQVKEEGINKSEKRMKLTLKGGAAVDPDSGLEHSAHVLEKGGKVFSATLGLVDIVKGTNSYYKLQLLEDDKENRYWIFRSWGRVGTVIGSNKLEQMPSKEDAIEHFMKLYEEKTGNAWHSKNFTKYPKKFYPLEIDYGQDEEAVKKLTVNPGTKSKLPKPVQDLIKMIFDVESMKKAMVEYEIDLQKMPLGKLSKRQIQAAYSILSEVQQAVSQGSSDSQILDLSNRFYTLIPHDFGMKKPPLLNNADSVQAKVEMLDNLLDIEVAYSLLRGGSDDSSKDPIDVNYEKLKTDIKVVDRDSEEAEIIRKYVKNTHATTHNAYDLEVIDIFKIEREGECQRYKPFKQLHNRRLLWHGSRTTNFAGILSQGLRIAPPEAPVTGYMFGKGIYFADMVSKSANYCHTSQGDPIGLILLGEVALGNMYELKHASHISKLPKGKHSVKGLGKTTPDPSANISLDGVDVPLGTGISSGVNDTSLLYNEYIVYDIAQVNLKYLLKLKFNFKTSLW

Assay [1] concerns the target myc-BirA-TRF1 (UniProt P54274). Description: proximity labelling; BioID in ALT+ U2OS cells stably expressing myc-BirA-TRF1; 50 µM biotin for 24 hr; streptavidin pull-down from ~6 x 10^7 cells, LC-MS in triplicate; myc-BirA cells as negative reference.
Assay [2] deals with myc-BirA-TRF1 (UniProt P54274). Put plainly: proximity labelling; BioID in TEL+ HeLa LT cells stably expressing myc-BirA-TRF1; 50 µM biotin for 24 hr; streptavidin pull-down from ~6 x 10^7 cells, LC-MS in triplicate; myc-BirA cells as negative reference.

These are yes or no findings as the source states them, for the method shown. In cells and extracts the contact can be indirect. Here binding means that the protein was enriched with, or labelled near, the bait; the list need not be complete.

As to PML (from UniProt P29590 1-882), the binding entry in the assay with myc-BirA-TRF1 [1] was “binds”.

Take MSH6 (from UniProt P52701 1-1360): in the assay with myc-BirA-TRF1 [1], the binding entry is “binds”.

Take FEN1 (from UniProt P39748 1-380): the binding entry in the assay with myc-BirA-TRF1 [1] and with myc-BirA-TRF1 [2] was “binds” throughout.

In the case of BLM (from UniProt P54132 1-1417), the binding entry with myc-BirA-TRF1 [1] and in the assay with myc-BirA-TRF1 [2] was “binds” each time.

In the case of SLX4 (from UniProt Q8IY92 1-1834), in the assay with myc-BirA-TRF1 [1], the binding entry is reported as “binds”.

Consider SMCHD1 (from UniProt A6NHR9 1-2005), for which the binding entry with myc-BirA-TRF1 [2] was “binds”.

As to ATRX (from UniProt P46100 1-2492), in the assay with myc-BirA-TRF1 [2], the binding entry was “binds”.

For TPP1 (from UniProt Q96AP0 1-458), the binding result with myc-BirA-TRF1 [1] and with myc-BirA-TRF1 [2] was “binds” each time.

With PARP1 (from UniProt P09874 1-1014), the binding entry with myc-BirA-TRF1 [1] and with myc-BirA-TRF1 [2] was “binds” in each case.

B1: NR2C2 (protein, UniProt P49116 1-596)
chain: MTSPSPRIQIISTDSAVASPQRIQIVTDQQTGQKIQIVTAVDASGSPKQQFILTSPDGAGTGKVILASPETSSAKQLIFTTSDNLVPGRIQIVTDSASVERLLGKTDVQRPQVVEYCVVCGDKASGRHYGAVSCEGCKGFFKRSVRKNLTYSCRSNQDCIINKHHRNRCQFCRLKKCLEMGMKMESVQSERKPFDVQREKPSNCAASTEKIYIRKDLRSPLIATPTFVADKDGARQTGLLDPGMLVNIQQPLIREDGTVLLATDSKAETSQGALGTLANVVTSLANLSESLNNGDTSEIQPEDQSASEITRAFDTLAKALNTTDSSSSPSLADGIDTSGGGSIHVISRDQSTPIIEVEGPLLSDTHVTFKLTMPSPMPEYLNVHYICESASRLLFLSMHWARSIPAFQALGQDCNTSLVRACWNELFTLGLAQCAQVMSLSTILAAIVNHLQNSIQEDKLSGDRIKQVMEHIWKLQEFCNSMAKLDIDGYEYAYLKAIVLFSPDHPGLTSTSQIEKFQEKAQMELQDYVQKTYSEDTYRLARILVRLPALRLMSSNITEELFFTGLIGNVSIDSIIPYILKMETAEYNGQITGASL
In the case of B1, the binding entry with myc-BirA-TRF1 [1] is on record as “binds”.

B2: PMS2 (protein, UniProt P54278 1-862)
chain: MERAESSSTEPAKAIKPIDRKSVHQICSGQVVLSLSTAVKELVENSLDAGATNIDLKLKDYGVDLIEVSDNGCGVEEENFEGLTLKHHTSKIQEFADLTQVETFGFRGEALSSLCALSDVTISTCHASAKVGTRLMFDHNGKIIQKTPYPRPRGTTVSVQQLFSTLPVRHKEFQRNIKKEYAKMVQVLHAYCIISAGIRVSCTNQLGQGKRQPVVCTGGSPSIKENIGSVFGQKQLQSLIPFVQLPPSDSVCEEYGLSCSDALHNLFYISGFISQCTHGVGRSSTDRQFFFINRRPCDPAKVCRLVNEVYHMYNRHQYPFVVLNISVDSECVDINVTPDKRQILLQEEKLLLAVLKTSLIGMFDSDVNKLNVSQQPLLDVEGNLIKMHAADLEKPMVEKQDQSPSLRTGEEKKDVSISRLREAFSLRHTTENKPHSPKTPEPRRSPLGQKRGMLSSSTSGAISDKGVLRPQKEAVSSSHGPSDPTDRAEVEKDSGHGSTSVDSEGFSIPDTGSHCSSEYAASSPGDRGSQEHVDSQEKAPKTDDSFSDVDCHSNQEDTGCKFRVLPQPTNLATPNTKRFKKEEILSSSDICQKLVNTQDMSASQVDVAVKINKKVVPLDFSMSSLAKRIKQLHHEAQQSEGEQNYRKFRAKICPGENQAAEDELRKEISKTMFAEMEIIGQFNLGFIITKLNEDIFIVDQHATDEKYNFEMLQQHTVLQGQRLIAPQTLNLTAVNEAVLIENLEIFRKNGFDFVIDENAPVTERAKLISLPTSKNWTFGPQDVDELIFMLSDSPGVMCRPSRVKQMFASRACRKSVMIGTALNTSEMKKLITHMGEMDHPWNCPHGRPTMRHIANLGVISQN
Turning to B2, the binding result in the assay with myc-BirA-TRF1 [1] was “binds”.

B3: LRIF1 (protein, UniProt Q5T3J3 1-769)
chain: MSNNLRRVFLKPAEENSGNASRCVSGCMYQVVQTIGSDGKNLLQLLPIPKSSGNLIPLVQSSVMSDALKGNTGKPVQVTFQTQISSSSTSASVQLPIFQPASSSNYFLTRTVDTSEKGRVTSVGTGNFSSSVSKVQSHGVKIDGLTMQTFAVPPSTQKDSSFIVVNTQSLPVTVKSPVLPSGHHLQIPAHAEVKSVPASSLPPSVQQKILATATTSTSGMVEASQMPTVIYVSPVNTVKNVVTKNFQNIYPKPVTEIAKPVILNTTQIPKNVATETQLKGGQHSQAAPVKWIFQDNLQPFTPSLVPVKSSNNVASKILKTFVDRKNLGDNTINMPPLSTIDPSGTRSKNMPIKDNALVMFNGKVYLLAKKGTDVLPSQIDQQNSVSPDTPVRKDTLQTVSSSPVTEISREVVNIVLAKSKSSQMETKSLSNTQLASMANLRAEKNKVEKPSPSTTNPHMNQSSNYLKQSKTLFTNPIFPVGFSTGHNAPRKVTAVIYARKGSVLQSIEKISSSVDATTVTSQQCVFRDQEPKIHNEMASTSDKGAQGRNDKKDSQGRSNKALHLKSDAEFKKIFGLTKDLRVCLTRIPDHLTSGEGFDSFSSLVKSGTYKETEFMVKEGERKQQNFDKKRKAKTNKKMDHIKKRKTENAYNAIINGEANVTGSQLLSSILPTSDVSQHNILTSHSKTRQEKRTEMEYYTHEKQEKGTLNSNAAYEQSHFFNKNYTEDIFPVTPPELEETIRDEKIRRLKQVLREKEAALEEMRKKMHQK
Consider B3, for which the binding entry with myc-BirA-TRF1 [2] is given as “binds”.

B4: ERCC1 (protein, UniProt P07992 1-297)
chain: MDPGKDKEGVPQPSGPPARKKFVIPLDEDEVPPGVAKPLFRSTQSLPTVDTSAQAAPQTYAEYAISQPLEGAGATCPTGSEPLAGETPNQALKPGAKSNSIIVSPRQRGNPVLKFVRNVPWEFGDVIPDYVLGQSTCALFLSLRYHNLHPDYIHGRLQSLGKNFALRVLLVQVDVKDPQQALKELAKMCILADCTLILAWSPEEAGRYLETYKAYEQKPADLLMEKLEQDFVSRVTECLTTVKSVNKTDSQTLLTTFGSLEQLIAASREDLALCPGLGPQKARRLFDVLHEPFLKVP
For B4, the binding entry in the assay with myc-BirA-TRF1 [1] is given as “binds”.

B5: ZNF827 (protein, UniProt Q17R98 1-1081)
chain: MPRRKQEQPKRLPSHVSRQEEAEGELSEGEHWYGNSSETPSEASYGEVQENYKLSLEDRIQEQSTSPDTSLGSTTPSSHTLELVALDSEVLRDSLQCQDHLSPGVSSLCDDDPGSNKPLSSNLRRLLEAGSLKLDAAATANGRVESPVNVGSNLSFSPPSHHAQQLSVLARKLAEKQEQNDQYTPSNRFIWNQGKWLPNSTTTCSLSPDSAILKLKAAANAVLQDKSLTRTEETMRFESFSSPFSSQSASSTLAALSKKVSERSLTPGQEHPPPASSFLSLASMTSSAALLKEVAARAAGSLLAEKSSLLPEDPLPPPPSEKKPEKVTPPPPPPPPPPPPPPPQSLELLLLPVPKGRVSKPSNSASEEESGKPFQCPICGLVIKRKSYWKRHMVIHTGLKSHQCPLCPFRCARKDNLKSHMKVHQHQDRGETFQCQLCPFTSSRHFSLKLHMRCHQHFLRTEAKVKEEIPDPDVKGSPHLSDSACLGQQREGGGTELVGTMMTSNTPERTSQGGAGVSPLLVKEEPKEDNGLPTSFTLNAADRPANHTKLKDPSEYVANSASALFSQDISVKMASDFLMKLSAANQKEPMNLNFKVKEEPKEGESLSTTLPRSSYVFSPESEVSAPGVSEDALKPQEGKGSVLRRDVSVKAASELLMKLSAESYKETQMVKIKEEPMEVDIQDSHVSISPSRNVGYSTLIGREKTEPLQKMPEGRVPPERNLFSQDISVKMASELLFQLSEKVSKEHNHTKENTIRTTTSPFFSEDTFRQSPFTSNSKELLPSDSVLHGRISAPETEKIVLEAGNGLPSWKFNDQLFPCDVCGKVFGRQQTLSRHLSLHTEERKYKCHLCPYAAKCRANLNQHLTVHSVKLVSTDTEDIVSAVTSEGSDGKKHPYYYSCHVCGFETELNVQFVSHMSLHVDKEQWMFSICCTACDFVTMEEAEIKTHIGTKHTGEDRKTPSESNSPSSSSLSALSDSANSKDDSDGSQKNKGGNNLLVISVMPGSQPSLNSEEKPEKGFECVFCNFVCKTKNMFERHLQIHLITRMFECDVCHKFMKTPEQLLEHKKCHTVPTGGLNSGQW
Turning to B5, the binding entry with myc-BirA-TRF1 [1] is recorded as “binds”.

B6: NR2C1 (protein, UniProt P13056 1-603)
chain: MATIEEIAHQIIEQQMGEIVTEQQTGQKIQIVTALDHNTQGKQFILTNHDGSTPSKVILARQDSTPGKVFLTTPDAAGVNQLFFTTPDLSAQHLQLLTDNSPDQGPNKVFDLCVVCGDKASGRHYGAVTCEGCKGFFKRSIRKNLVYSCRGSKDCIINKHHRNRCQYCRLQRCIAFGMKQDSVQCERKPIEVSREKSSNCAASTEKIYIRKDLRSPLTATPTFVTDSESTRSTGLLDSGMFMNIHPSGVKTESAVLMTSDKAESCQGDLSTLANVVTSLANLGKTKDLSQNSNEMSMIESLSNDDTSLCEFQEMQTNGDVSRAFDTLAKALNPGESTACQSSVAGMEGSVHLITGDSSINYTEKEGPLLSDSHVAFRLTMPSPMPEYLNVHYIGESASRLLFLSMHWALSIPSFQALGQENSISLVKAYWNELFTLGLAQCWQVMNVATILATFVNCLHNSLQQDKMSTERRKLLMEHIFKLQEFCNSMVKLCIDGYEYAYLKAIVLFSPDHPSLENMEQIEKFQEKAYVEFQDYITKTYPDDTYRLSRLLLRLPALRLMNATITEELFFKGLIGNIRIDSVIPHILKMEPADYNSQIIGHSI
As to B6, in the assay with myc-BirA-TRF1 [1], the binding entry is listed as “binds”.

B7: TIN2 (protein, UniProt Q9BSI4 1-451)
chain: MATPLVAGPAALRFAAAASWQVVRGRCVEHFPRVLEFLRSLRAVAPGLVRYRHHERLCMGLKAKVVVELILQGRPWAQVLKALNHHFPESGPIVRDPKATKQDLRKILEAQETFYQQVKQLSEAPVDLASKLQELEQEYGEPFLAAMEKLLFEYLCQLEKALPTPQAQQLQDVLSWMQPGVSITSSLAWRQYGVDMGWLLPECSVTDSVNLAEPMEQNPPQQQRLALHNPLPKAKPGTHLPQGPSSRTHPEPLAGRHFNLAPLGRRRVQSQWASTRGGHKERPTVMLFPFRNLGSPTQVISKPESKEEHAIYTADLAMGTRAASTGKSKSPCQTLGGRALKENPVDLPATEQKENCLDCYMDPLRLSLLPPRARKPVCPPSLCSSVITIGDLVLDSDEEENGQGEGKESLENYQKTKFDTLIPTLCEYLPPSGHGAIPVSSCDCRDSSRPL
On to B7, for which the binding entry in the assay with myc-BirA-TRF1 [1] and with myc-BirA-TRF1 [2] was “binds” each time.
